The test in a line: qHTS Assay for Lipid Storage Modulators in Drosophila S3 Cells.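 On cell number change: cells counted by Cell Tracker Red CMTPX staining in the red channel.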 Particulars: BODIPY lipid droplet fluorescence, 18-24 h; for cell number change: measured here: cell count max response, cells fed with added oleic acid. The method, boiled down:
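Drosophila S3 cells loaded with oleic acid (400 uM, as added) and compounds at several concentrations; lipid droplets imaged by 488-nm laser-scanning cytometry, 500–530 nm intensity and object ratio to cell channel. Percent activity normalized to 20 uM Triacsin C.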

[1] abbreviates: measured here: lipid fluorescence (Fed channel) AC50, cells fed with added oleic acid.
Setting [2] is: measured here: cell number channel AC50, cells fed with added oleic acid.

These results are taken from PubChem BioAssay AID2685 (National Center for Advancing Translational Sciences (NCATS), 2010).

This is one part of the list. Further columns of the screen follow, without active or inactive calls. Compounds called inactive in the main read-out are mostly missing here. Potencies come from curve fits of mixed quality, noted in brackets.

In general, AC50 refers to the midpoint of the concentration-response curve, whichever way the signal moves. Read a high AC50 as activity only at high concentration. For `O=c1nc2n(c3sc4c(c13)CCCC4)C(CBr)CS2` (configuration not stated), the cell number change is 7.48%. For the same compound, the AC50 under setting [1] was 16.4 µM [rising, single point].
As to `CCOc1ccccc1C(=O)NCC(=O)NCC(c1ccc(OC)cc1)N1CCOCC1` (configuration not stated), the cell number change stood at 7.36%. Moreover, under setting [1], the AC50 was 0.00517 µM [falling, full curve].
For `O=C(OCn1nnc2ccccc2c1=O)c1ccc2ccccc2n1`, the cell number change was found to be 2.92%.
`COc1ccc(CNC(=O)COC(=O)CN2C(=O)NC3(CCCC3)C2=O)cc1`: the cell number change was determined as 17.6%. Moreover, the AC50 under setting [1] was 6.51 µM [rising, single point].
Turning to `COCCNC(=O)C(OC(=O)C1=Cc2ccccc2OC1)C(C)C` (configuration not stated), the cell number change was determined as 13.7%. In addition, the AC50 under setting [1] is 20.6 µM [rising, single point].
`COc1ccc(CCN2C(=O)C3C4CC(C5C(C(=O)N/N=C\c6ccc(Cl)cc6)=NOC45)C3C2=O)cc1OC` (configuration not stated): the cell number change came out at 9.35%. In addition, under setting [2], the AC50 is 0.13 µM [falling, full curve, poor fit].
For `CC(C)(C)S(=O)(=O)/C(C#N)=N/Nc1ccc(S(C)(=O)=O)cc1`, the cell number change is -52.9%. Also, the AC50 under setting [2] was 1.84 µM [falling, full curve]. Further, under setting [1], the AC50 is 23.1 µM [falling, single point].
With `CC(=O)OCCN(CCOC(C)=O)c1c(C)[nH]c(=O)[nH]c1=O`, the cell number change is 13.3%. Also, the AC50 under setting [1] was 6.51 µM [falling, single point].
With `Cc1ccc(C2=NS(=O)(=O)N(C)C(C(=O)NC(C)c3ccccc3)=C2)cc1` (configuration not stated), the cell number change is 7.2%. Further, the half-maximal activity concentration (AC50) under setting [1] is 20.6 µM [falling, partial curve].
On to `COC(=O)CNC(=O)Cn1nc(C)c([N+](=O)[O-])c1C`, for which the concentration at half-maximal activity (AC50) is, setting by setting: under setting [2], 6.51 µM [falling, single point]; under setting [1], 5.8 µM [falling, single point].
For `CC(C)n1cc(C(=O)N2CCCC(Nc3ccc(F)c(F)c3)C2)cn1` (configuration not stated), the cell number change turned out to be 64%. Besides, the AC50 under setting [2] was 29.1 µM [rising, single point].
As for `O=C(Nc1ccncc1)C1CCN(S(=O)(=O)c2ccc(Cl)cc2)CC1`, the cell number change came out at 22.3%. In addition, the AC50 under setting [1] was 1.03 µM [rising, partial curve].
As for `O=C(CN1CCN(C(=O)c2ccccc2)CC1)Nc1cccc(S(=O)(=O)N2CCCC2)c1`, the cell number change came to 10.4%.
As for `CCOC(=O)/C=C/C(=O)Nc1cccc([N+](=O)[O-])c1`, the cell number change is -60.4%. Moreover, the AC50 under setting [2] was 23.1 µM [falling, single point]. The AC50 under setting [1] is 29.1 µM [falling, single point].
Take `OC(COc1cccc2ccccc12)CN1CCCC1` (configuration not stated): the cell number change is -5.86%. In addition, the AC50 under setting [1] is 29.1 µM [rising, single point].
For the compound `COc1ccc(OC)c(C2CC(=O)N3CN(c4cccc(Cl)c4C)CSC3=C2C#N)c1` (configuration not stated), the cell number change is -2.4%.
In the case of `N#C/C(=C\c1cccc([N+](=O)[O-])c1)c1ccccn1`, the cell number change is -4.81%. In addition, the AC50 under setting [1] was 3.66 µM [rising, partial curve].
As for `O=C(NCc1cccnc1)C(=O)Nc1nccs1`, the cell number change stood at 46%.
Consider `COc1ccc(C(=O)NCCS(=O)(=O)N2CCCCCC2)cc1`, for which the AC50 under setting [1] was 0.092 µM [falling, full curve, poor fit].
On to `O=C(Nc1cccc(C(F)(F)F)c1)C1CC(=O)N(CCc2ccccc2)C1` (configuration not stated), for which the cell number change was 35%. The AC50 under setting [2] is 29.1 µM [rising, single point]. The AC50 under setting [1] was 0.13 µM [rising, full curve, poor fit].
Turning to `O=C(c1cc(Br)ccc1O)N1CCN(S(=O)(=O)Cc2ccccc2)CC1`, the cell number change is -72.9%. Also, the AC50 under setting [2] is 20.6 µM [falling, single point]. For the same compound, the AC50 under setting [1] is 29.1 µM [falling, single point].
As to `CCC(C)NC(=O)C1CCC(=O)N1CCc1ccccc1` (configuration not stated), the cell number change was -27.3%. For the same compound, the AC50 under setting [2] is 4.11 µM [falling, full curve, poor fit]. Under setting [1], the AC50 was 4.61 µM [falling, full curve, poor fit].
Consider `O=C(N/N=C/c1ccc(O)c(O)c1O)/C(=C/c1ccc([N+](=O)[O-])cc1)NC(=O)c1ccccc1`, for which the cell number change was 32.7%. Also, the AC50 under setting [2] is 4.11 µM [rising, partial curve, poor fit]. Under setting [1], the AC50 was 4.61 µM [rising, single point].
Regarding `CCOC(=O)c1oc2nc3c(cc2c1N)COC(C)(C)C3`, the cell number change was 35.4%. Besides, under setting [2], the AC50 is 1.84 µM [rising, full curve]. Also, the half-maximal activity concentration (AC50) under setting [1] is 0.259 µM [rising, full curve, poor fit].
Consider `CC(C)(C)c1ccc(/C=N/NC(=O)Cc2c[nH]c3ccccc23)cc1`, for which the cell number change was -92%. In addition, the AC50 under setting [2] is 29.1 µM [falling, single point].
As for `C=CCNC(=S)NNC(=O)c1cc(-c2cccnc2)nc2ccccc12`, the cell number change was -18.8%. Moreover, the AC50 under setting [1] is 29.1 µM [rising, single point].
Regarding `Cc1cccc(/N=C/c2c(O)n(Cc3ccc4c(c3)OCO4)c(=O)c3ccccc23)n1`, the AC50 reads like this: under setting [2], 0.058 µM [rising, full curve]; under setting [1], 0.00461 µM [rising, full curve, poor fit].
For the compound `Cc1ccc(S(=O)(=O)N2CCN(C(=O)CCNC(=O)c3ccccc3Cl)CC2)cc1`, the cell number change was -94.5%. Under setting [2], the AC50 was 29.1 µM [falling, single point].
Turning to `CC(=O)C1=C(C)NC(=O)NC1c1cc(Br)ccc1OCC(N)=O` (configuration not stated), the cell number change was -11.7%.
Still for that read-out and setting: with `COC(=O)c1ccc(C2c3[nH]c4ccccc4c3C[C@H]3C(=O)N(C4CCN(Cc5ccccc5)CC4)CC(=O)N23)cc1` (some centres not stated) the figure was -0.917%.
As to `CCOc1ccc(CCNC(=O)CS(=O)Cc2nc(-c3ccc(OC)c(OC)c3)oc2C)cc1OCC` (configuration not stated), the AC50 under setting [2] was 1.64 µM [falling, partial curve].
In the case of `O=C(c1oc(=O)c2ccccc2c1-c1ccccc1)N1CCC(O)CC1`, the cell number change came to 1.3%. For the same compound, the AC50 under setting [1] was 1.16 µM [falling, single point].
With `Cc1cccc(C)c1OCc1cc(C(=O)NCc2ccc(Cl)s2)no1`, the cell number change is -0.33%.
On to `CCCc1cc(=O)oc2cc(C)cc(OCC(=O)N3CCC(C(N)=O)CC3)c12`, for which the cell number change came to 30.7%. The AC50 under setting [2] is 0.651 µM [rising, full curve, poor fit].
Consider `COc1cccc(CC(=O)OCC(=O)NCC(=O)Nc2cccc(C)c2C)c1`, for which the cell number change is -15.6%.
For the compound `COc1ccc(NS(=O)(=O)c2cccc(C(=O)N3CCC3)c2)cc1`, the cell number change turned out to be 33.3%. Also, under setting [2], the AC50 was 10.3 µM [rising, partial curve].
With `Cc1ccc(S(=O)(=O)NC(CC(C)C)C(=O)N2CC(C)OC(C)C2)cc1` (configuration not stated), the cell number change came to 9.19%.
On to `Cc1ccc(C)c(SCC(=O)OCC(=O)N2CC(C)OC(C)C2)c1` (configuration not stated), for which the cell number change is -32.6%. The AC50 under setting [1] was 4.61 µM [falling, full curve].
